Laboratory results taken from publication PMC8167299, “Cardio- and reno-protective effects of dipeptidyl peptidase III in diabetic mice” (The Journal of Biological Chemistry, 2021).
Results are given in words; binding and its absence hold for the method and conditions named. Some entries that bind do so weakly or less than the wild type.

Target: T1, C3a receptor 1 (human (endogenous in HUVEC)) (UniProt Q16581)
T1 sequence: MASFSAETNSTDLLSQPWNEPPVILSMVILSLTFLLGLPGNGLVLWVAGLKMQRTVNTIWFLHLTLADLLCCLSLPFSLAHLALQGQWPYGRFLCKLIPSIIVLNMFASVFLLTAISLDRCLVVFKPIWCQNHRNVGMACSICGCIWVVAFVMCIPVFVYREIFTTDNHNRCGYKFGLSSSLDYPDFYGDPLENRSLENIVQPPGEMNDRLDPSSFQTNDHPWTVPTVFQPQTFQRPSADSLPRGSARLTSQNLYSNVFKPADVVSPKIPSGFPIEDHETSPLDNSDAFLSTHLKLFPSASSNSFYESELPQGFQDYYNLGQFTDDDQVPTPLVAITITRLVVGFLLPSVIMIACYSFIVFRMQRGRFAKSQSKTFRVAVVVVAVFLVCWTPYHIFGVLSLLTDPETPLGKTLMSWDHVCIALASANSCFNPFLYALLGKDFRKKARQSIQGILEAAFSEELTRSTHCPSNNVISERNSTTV
Test: fluorescence confocal microscopy of a FITC-labelled peptide attached to cells; HUVECs with or without C3aR knockdown (siC3aR #2 or scramble RNA) incubated with the indicated concentrations of FITC-Peptide 2 (200 μmol/l in Fig. 7B) for 2 h at 4 °C, washed with PBS three times, fixed with 4% paraformaldehyde; only the binder purified

B1: FITC-conjugated Peptide 2 (peptide)
peptide: RLLWENGNL
modifications: FITC-conjugated (position not given)
  binding: binds
